# Experimental data taken from patent publication US10561703B2 (GEMVAX & KAEL CO., LTD., priority 2013, dated 2020).
# Plain letter strings leave the end groups untold.
# Assay: general procedure: Fmoc solid-phase peptide synthesis
# Settings: whole synthesis
sequence,measurement,value
EARPALLTSRLRFIPK (listed as Homo sapiens),final purity (method not given),94.13%
